Laboratory results reported in PubChem BioAssay AID540276 (National Center for Advancing Translational Sciences (NCATS), 2011).
Screen size: about 300,000 compounds; about 5,400 (1.8%) were called active. The inconclusive results got no clear call from the source; some entries with a clear call stand among them for comparison. Calls follow the shape of the full dose curve; tested in HEK293 cells. Where the call is inconclusive, the potency comes from a doubtful curve fit.

assay: qHTS for inhibitors of binding or entry into cells for Marburg Virus; conditions: Marburg virus pseudotyped entry inhibition, cell reporter; activity change, negative = inhibition: at 37.8 µM (top of the series) unless noted
% is scaled to controls: 0 for no effect and ±100 for the full control effect; potency is read from the fitted curve at half-maximal effect.

Row | SMILES | Potency | activity change, negative = inhibition
1 | Cc1ccc(N2NC3(CCN(C(N)=O)CC3)NC2=O)cc1 | inconclusive: 12.6 µM [inhibitor, partial curve, poor fit] | 
2 | Cc1ccc(Cn2ccc(NC(=O)CCSc3nc(-c4ccco4)cc(C(F)(F)F)n3)n2)cc1 | inconclusive: 22.4 µM [inhibitor, single point] | 
3 | CC(C)(C)c1ccc(OCC(=O)NCC2(N3CCOCC3)CCCCC2)cc1 | inconclusive: 15.8 µM [inhibitor, single point] | 
4 | COc1c(C)cc(C(=O)C2CCCN(C(=O)c3cc(C)on3)C2)cc1C (stereo unspecified) | inconclusive: 11.2 µM [inhibitor, partial curve, poor fit] | 
5 | Cc1cc(Cl)ccc1N(CC(=O)NCCSCc1ccco1)S(C)(=O)=O | inconclusive: 8.91 µM [inhibitor, partial curve, poor fit] | 
6 | C[n+]1cc2c3c(ccc2c2ccc4cc5c(cc4c21)OCO5)OCO3 | active: 0.891 µM | 
7 | COc1cnc(-c2ccccc2)nc1Oc1ccccc1C | inconclusive: 35.5 µM [inhibitor, single point] | 
8 | CCCCNc1nc(Cl)nc(Nc2ccc(C)cc2)n1 |  | inactive: -29.6% [at 46.1 µM]
9 | CCOc1ccc(N2CC(C(=O)Nc3ccccc3C(=O)N3CCOCC3)CC2=O)cc1 (stereo unspecified) |  | inactive: -9.46%
10 | O=C(CNC(=O)c1ccco1)Nc1ccc(F)c(Cl)c1 |  | inconclusive: 6.55% [activator]
11 | COc1cc(OC)cc(C(=O)NCCS(=O)(=O)N2CCN(Cc3ccccc3)CC2)c1 |  | inactive: 2% [at 46.1 µM]
12 | CCCN(CC(=O)Nc1ccccc1C)C(=O)CCNC(=O)c1ccccc1Cl |  | inactive: 9.53% [at 46.1 µM]
13 | O=C(Nc1ccccc1C(=O)NC(Cc1ccccc1)C(=O)NC1CCCCCC1)c1ccccc1 (stereo unspecified) | inconclusive: 11.2 µM [inhibitor, partial curve] | 
14 | CCC/C(C)=C/c1ccc(CC)cn1 |  | inactive: -0.0767% [at 46.1 µM]
15 | O=C1CC(N2CCC(O)(c3ccc(Br)cc3)CC2)C(=O)N1c1ccc(Cl)cc1 (stereo unspecified) | inconclusive: 35.5 µM [activator, single point] | 
16 | CCCC[C@]12Cc3cc(OC)c(OC)cc3C(O1)c1c(cc(-c3ccccc3)oc1=O)O2 |  | inactive: -24.8% [at 14.2 µM]
17 | CC(C)(C)c1ccc(/C=C2\SC(=O)N(CCNC(=O)c3cccc(S(=O)(=O)N4CCOCC4)c3)C2=O)cc1 | inconclusive: 7.94 µM [inhibitor, partial curve, poor fit] | 
18 | CC(C)Oc1cc(-n2c(=S)[nH]c3ccccc3c2=O)c(Cl)cc1Cl |  | inactive: -23.7%
19 | Oc1[nH]c2ccc(Br)cc2c1N=NC(=S)NCC1CCCO1 (stereo unspecified) |  | inactive: 5.34% [at 46.1 µM]
20 | COc1ccccc1NC(=O)Nc1cc(NC(=O)Nc2ccccc2OC)c(C)nc1C | inconclusive: 31.6 µM [inhibitor, single point] | 
21 | Cc1csc2c(N3CCN(C(=S)Nc4ccc(F)cc4F)CC3)ncnc12 | inconclusive: 35.5 µM [inhibitor, single point] | 
22 | Cc1ccc(NC(=O)CN(C)CC(=O)NC2CCCc3ccccc32)cc1 (stereo unspecified) | inconclusive: 35.5 µM [inhibitor, single point] | 
23 | Cc1nccn1S(=O)(=O)c1ccc(Br)cc1Br |  | inactive: 12.5%

In a second layout: results already given.

| Row | SMILES | Potency | activity change, negative = inhibition |
| --- | --- | --- | --- |
| 2 | Cc1ccc(Cn2ccc(NC(=O)CCSc3nc(-c4ccco4)cc(C(F)(F)F)n3)n2)cc1 | inconclusive: 22.4 µM [inhibitor, single point] |  |
| 3 | CC(C)(C)c1ccc(OCC(=O)NCC2(N3CCOCC3)CCCCC2)cc1 | inconclusive: 15.8 µM [inhibitor, single point] |  |

Further results:

Row | SMILES | Potency | activity change, negative = inhibition
24 | Cc1ccc(C)c(S(=O)(=O)N2CCN(C(=O)Cn3cnc4c3c(=O)n(C)c(=O)n4C)CC2)c1 | inconclusive: 6.31 µM [inhibitor, single point] | 
25 | Cc1cc(C)cc(NC(=O)c2ccc([N+](=O)[O-])o2)c1 | inconclusive: 11.2 µM [inhibitor, partial curve, poor fit] | 
26 | CCCN(CCC)C(=O)Cn1c(=O)n(CCCCCC(=O)NCc2ccc3c(c2)OCO3)c(=O)c2sccc21 |  | inactive: 0.91% [at 46.1 µM]
27 | CN(C)c1ccc(/C=N/NC(=O)CNC(=O)/C=C/c2ccccc2)cc1 |  | inactive: 3.28%
28 | CCOc1ccccc1CNC(=O)c1oc2c(c1C)-c1[nH]ncc1CC2 | inconclusive: 7.94 µM [inhibitor, partial curve, poor fit] | 
29 | N#Cc1ccccc1S(=O)(=O)N1CCN(CC(=O)Nc2ccnn2C2CCCC2)CC1 |  | inactive: 1.96%
30 | O=C(Nc1ccc(Oc2ccc3ccccc3c2)cc1)c1ccco1 | inconclusive: 3.98 µM [inhibitor, partial curve, poor fit] | 
31 | CCOC(=O)c1c(C)n(Cc2ccccc2)c2ccc(OCC(O)Cn3nc(C)cc3C)cc12 (stereo unspecified) | inconclusive: 28.2 µM [inhibitor, single point] | 
32 | CCOc1ccccc1CNc1ccc(O)cc1 | inconclusive: 17.8 µM [inhibitor, single point] | 
33 | O=C(Nc1cccc(Cl)c1)N1CCc2ccccc2C1 | inconclusive: 6.31 µM [activator, partial curve, poor fit] | 
34 | O=C(Cc1ccc(F)cc1)NC1CCCCCC1 |  | inactive: 13.6%
35 | CCOc1ccc(NC(=O)NC2CCCCCCC2)cc1 | inconclusive: 1.78 µM [activator, partial curve, poor fit] | 
37 | O=C(Nc1nnc(-c2ccco2)o1)c1ccc([N+](=O)[O-])s1 | inconclusive: 35.5 µM [inhibitor, single point] | 
38 | Cc1[nH]c2ccccc2c1C(=O)CSc1ccccc1 | inconclusive: 3.98 µM [activator, partial curve] | 
39 | S=C(NCc1ccccc1)Nc1cccc(Cl)c1 |  | inactive: -34.8%
40 | Cc1ccc(C)c(OCc2nnc(N)s2)c1 | inconclusive: 0.251 µM [activator, full curve, poor fit] | 
41 | O=C(NNc1nc2ccc(F)cc2s1)c1cccc(F)c1 | active: 11.2 µM | 
42 | Cc1ccc(NC(=O)Nc2ccccc2CC[N+](=O)[O-])cc1 |  | inactive: 20.2% [at 46.1 µM]
43 | CN(C(=O)COC(=O)/C=C/c1ccc2ccccc2n1)C1CCS(=O)(=O)C1 (stereo unspecified) | inconclusive: 17.8 µM [inhibitor, partial curve, poor fit] | 
44 | O=C(CNC(=O)c1ccco1)Nc1ccc(Cl)cc1 | inconclusive: 2.82 µM [activator, partial curve, poor fit] | 
45 | C=CCn1c(O)c(C(C)=Nc2cccc(C(F)(F)F)c2)c(=O)[nH]c1=O | inconclusive: 3.16 µM [activator, single point] | 
46 | Cc1nc(-c2ccc(Cl)cc2)sc1C(=O)NN | inconclusive: 11.2 µM [inhibitor, partial curve, poor fit] | 
